Results: patent US20240294638A1
These are yes or no findings as the source states them, for the method shown. Some binding calls cover weakened binding; strength is not graded here.

Experiments:
[1] = biological target: T1, cynomolgus NKG2A and cynomolgus CD94 expressed on transiently transfected CHO-S cells (cynomolgus) (UniProt Q68VD2+Q68VD4); experiment: flow cytometry, transiently transfected CHO-S cells, AF647 goat anti-human IgG secondary (MFI) [panel 23686]
[2] = biological target: T1, cynomolgus NKG2A and cynomolgus CD94 expressed on transiently transfected CHO-S cells (cynomolgus); experiment: blocking of PE-conjugated HLA-E pentamer binding to transiently transfected CHO-S cells, flow cytometry (percentage binding) [panel B cNKG2A]
[3] = biological target: T1, cynomolgus NKG2A and cynomolgus CD94 expressed on transiently transfected CHO-S cells (cynomolgus); experiment: flow cytometry on transfected CHO-S cells

binding [1]: binds
binding [2]: binds
binding [3]: binds
B1: antibody 23686 (antibody, human IgG1, kappa, L234A L235A, V domains shown)
VH: EVQLVESGGGLVKPGGSLRLSCAASGFTFSSYSMNWVRQAPGKGLEWVSSISSSSSYIYYADSVKGRFTISRDNAKNSLYLQMNSLRAEDTAVYYCARDEWGLLGFDSWGQGTLVTVSS
VL: EIVLTQSPATLSLSPGERATLSCRASQSISNYLAWYQQKPGQAPRLLIYDASNRATGIPARFSGSGSGTDFTLTISSLEPEDFAVYYCQQRTDWPPWTFGQGTKVEIKR
